Reference: the supplement of paper PMC8426693
This is one part of the list.

Legend:
Experiment in all cases: NMR binding call after quantification (hit when 2 of 3 NMR criteria are met) (binary (1 = binding, 0 = not binding)); higher = binding
Conditions in all cases: RNA concentration 10 µM; fragment concentration 200 µM; 293 K
[1] = system: SARS-CoV-2 3'-UTR RNA
[2] = system: SARS-CoV-2 3_SL1 RNA
[3] = system: SARS-CoV-2 3_SL1+2 RNA
[4] = system: SARS-CoV-2 3_SL2 RNA
[5] = system: SARS-CoV-2 3_SL3base RNA
[6] = system: SARS-CoV-2 3_s2m RNA
[7] = system: SARS-CoV-2 5'-UTR RNA
[8] = system: SARS-CoV-2 5_SL1 RNA
[9] = system: SARS-CoV-2 5_SL1234 RNA
[10] = system: SARS-CoV-2 5_SL2+3 RNA
[11] = system: SARS-CoV-2 5_SL4 RNA
[12] = system: SARS-CoV-2 5_SL5 RNA
[13] = system: SARS-CoV-2 5_SL5a RNA
[14] = system: SARS-CoV-2 5_SL5b+c RNA
[15] = system: SARS-CoV-2 5_SL5stem RNA
[16] = system: SARS-CoV-2 5_SL6 RNA

| SMILES | NMR binding call [1] | NMR binding call [2] | NMR binding call [3] | NMR binding call [4] | NMR binding call [5] | NMR binding call [6] | NMR binding call [7] | NMR binding call [8] | NMR binding call [9] | NMR binding call [10] | NMR binding call [11] | NMR binding call [12] | NMR binding call [13] | NMR binding call [14] | NMR binding call [15] | NMR binding call [16] |
| --- | --- | --- | --- | --- | --- | --- | --- | --- | --- | --- | --- | --- | --- | --- | --- | --- |
| O=C(NCc1ccccc1)c1cccc(F)c1 | 0 | 0 | 0 | 0 | 0 | 0 | 0 | 0 | 0 | 0 | 0 | 0 | 0 | 0 | 0 | 0 |
| Cc1cc(C)nc(Nc2ccccc2)n1 | 0 | 0 | 0 | 0 | 0 | 0 | 0 | 0 | 0 | 0 | 0 | 0 | 0 | 0 | 0 | 0 |
| CN1CCN(C(=O)c2ccc(F)c(F)c2)CC1 | 0 | 0 | 0 | 0 | 0 | 0 | 0 | 0 | 0 | 0 | 0 | 0 | 0 | 0 | 0 | 0 |
| CC(=O)c1ccc(OCC(=O)O)cc1 | 0 | 0 | 0 | 0 | 0 | 0 | 0 | 0 | 0 | 0 | 0 | 0 | 0 | 0 | 0 | 0 |
| CC(C)CNC(=O)c1ccc2ccccc2c1 | 0 | 0 | 0 | 0 | 0 | 0 | 0 | 0 | 0 | 0 | 0 | 0 | 0 | 0 | 0 | 0 |
| COC(=O)N1CCN(c2ccc(F)cc2)CC1 | 0 | 0 | 0 | 0 | 0 | 0 | 0 | 0 | 0 | 0 | 0 | 0 | 0 | 0 | 0 | 0 |
| CCn1c(NC(C)=O)nc2ccccc21 | 0 | 0 | 0 | 0 | 0 | 0 | 0 | 0 | 0 | 0 | 0 | 0 | 0 | 0 | 0 | 0 |
| CCOC(=O)c1ccc(F)cc1F | 0 | 0 | 0 | 0 | 0 | 0 | 0 | 0 | 0 | 0 | 0 | 0 | 0 | 0 | 0 | 0 |
| Cc1nc(CN2CC(F)CC2CN)cs1 (stereo not given) | 0 | 0 | 0 | 0 | 0 | 0 | 0 | 0 | 0 | 0 | 0 | 0 | 0 | 0 | 0 | 0 |
| Cc1cc(F)ccc1CS(N)(=O)=O | 0 | 0 | 0 | 0 | 0 | 0 | 0 | 0 | 0 | 0 | 0 | 0 | 0 | 0 | 0 | 0 |
| CCn1cc(NC(=O)C2CCC2)cn1 | 0 | 0 | 0 | 0 | 0 | 0 | 0 | 0 | 0 | 0 | 0 | 0 | 0 | 0 | 0 | 0 |
| c1nc(N2CCC2)c2[nH]cnc2n1 | 1 | 0 | 0 | 0 | 0 | 0 | 1 | 0 | 0 | 0 | 0 | 0 | 0 | 0 | 0 | 0 |
| COc1ccc(CNC(=O)CC#N)cc1 | 0 | 0 | 0 | 0 | 0 | 0 | 0 | 0 | 0 | 0 | 0 | 0 | 0 | 0 | 0 | 0 |
| N#Cc1ccc(N2CCNCC2)c(F)c1 | 0 | 0 | 0 | 0 | 0 | 0 | 0 | 0 | 0 | 0 | 0 | 0 | 0 | 0 | 0 | 0 |
| CC(=O)Nc1ccc(CC(N)=O)cc1 | 0 | 0 | 0 | 0 | 0 | 0 | 0 | 0 | 0 | 0 | 0 | 0 | 0 | 0 | 0 | 0 |
| Cc1cncc(NCc2ccncc2)c1 | 0 | 0 | 0 | 0 | 0 | 0 | 0 | 0 | 0 | 0 | 0 | 0 | 0 | 0 | 0 | 0 |
| CC(O)CNCc1ccc2c(c1)OCO2 (stereo not given) | 0 | 0 | 0 | 0 | 0 | 0 | 0 | 0 | 0 | 0 | 0 | 0 | 0 | 0 | 0 | 0 |
| CS(=O)(=O)NC1CCNCC1 | 0 | 0 | 0 | 0 | 0 | 0 | 0 | 0 | 0 | 0 | 0 | 0 | 0 | 0 | 0 | 0 |

| SMILES | NMR binding call [1] | NMR binding call [2] | NMR binding call [3] | NMR binding call [4] | NMR binding call [5] | NMR binding call [6] | NMR binding call [7] | NMR binding call [8] | NMR binding call [9] | NMR binding call [10] | NMR binding call [11] | NMR binding call [12] | NMR binding call [13] | NMR binding call [14] | NMR binding call [15] | NMR binding call [16] |
| --- | --- | --- | --- | --- | --- | --- | --- | --- | --- | --- | --- | --- | --- | --- | --- | --- |
| CC(=O)N1CCN(c2ccc(Cl)cc2)CC1 | 0 | 0 | 0 | 0 | 0 | 0 | 0 | 0 | 0 | 0 | 0 | 0 | 0 | 0 | 0 | 0 |
| CNC(=O)c1cccc(C(=O)O)n1 | 0 | 0 | 0 | 0 | 0 | 0 | 0 | 0 | 0 | 0 | 0 | 0 | 0 | 0 | 0 | 0 |
| CCS(=O)(=O)NCc1ccc2c(c1)OCO2 | 0 | 0 | 0 | 0 | 0 | 0 | 0 | 0 | 0 | 0 | 0 | 0 | 0 | 0 | 0 | 0 |
| O=C(OCc1ccc(Cl)cc1)c1cccnc1 | 1 | 0 | 0 | 0 | 0 | 0 | 1 | 0 | 0 | 0 | 0 | 0 | 0 | 0 | 0 | 0 |
| COCC(=O)Nc1c(C)cc(C)cc1C | 0 | 0 | 0 | 0 | 0 | 0 | 0 | 0 | 0 | 0 | 0 | 0 | 0 | 0 | 0 | 0 |
| CN1CCN(c2ncccc2F)CC1=O | 0 | 0 | 0 | 0 | 0 | 0 | 0 | 0 | 0 | 0 | 0 | 0 | 0 | 0 | 0 | 0 |
| C1CC(Cc2nc(C3CC3)no2)CCN1 | 0 | 0 | 0 | 0 | 0 | 0 | 0 | 0 | 0 | 0 | 0 | 0 | 0 | 0 | 0 | 0 |
| CCOc1cccc(C(=O)Nc2nnn(C)n2)c1 | 0 | 0 | 0 | 0 | 0 | 0 | 0 | 0 | 0 | 0 | 0 | 0 | 0 | 0 | 0 | 0 |
| CCCn1nnnc1NC(=O)c1ccco1 | 0 | 0 | 0 | 0 | 0 | 0 | 0 | 0 | 0 | 0 | 0 | 0 | 0 | 0 | 0 | 0 |
| CCNC(=O)c1c[nH]nn1 | 0 | 0 | 0 | 0 | 0 | 0 | 0 | 0 | 0 | 0 | 0 | 0 | 0 | 0 | 0 | 0 |
| CC(=O)N1CCC(C#N)CC1 | 0 | 0 | 0 | 0 | 0 | 0 | 0 | 0 | 0 | 0 | 0 | 0 | 0 | 0 | 0 | 0 |
| CCOC(=O)c1sc(-c2cnccn2)nc1C | 0 | 0 | 0 | 0 | 0 | 0 | 0 | 0 | 0 | 0 | 0 | 0 | 0 | 0 | 0 | 0 |
| CN(C)C(=O)c1ccc(F)cc1Br | 0 | 0 | 0 | 0 | 0 | 0 | 0 | 0 | 0 | 0 | 0 | 0 | 0 | 0 | 0 | 0 |
| CC1CCN(CCN)CC1 | 0 | 0 | 0 | 0 | 0 | 0 | 0 | 0 | 0 | 0 | 0 | 0 | 0 | 0 | 0 | 0 |
| CCc1nnc(NC(=O)c2cnccn2)s1 | 0 | 0 | 0 | 0 | 0 | 0 | 0 | 0 | 0 | 0 | 0 | 0 | 0 | 0 | 0 | 0 |
| CN(CC(=O)O)C(=O)c1ccccn1 | 0 | 0 | 0 | 0 | 0 | 0 | 0 | 0 | 0 | 0 | 0 | 0 | 0 | 0 | 0 | 0 |
| CCOC(=O)CN1CCCCC1 | 0 | 0 | 0 | 0 | 0 | 0 | 0 | 0 | 0 | 0 | 0 | 0 | 0 | 0 | 0 | 0 |

Among those listed so far, these have four or more nitrogen atoms.

| SMILES | NMR binding call [1] | NMR binding call [2] | NMR binding call [3] | NMR binding call [4] | NMR binding call [5] | NMR binding call [6] | NMR binding call [7] | NMR binding call [8] | NMR binding call [9] | NMR binding call [10] | NMR binding call [11] | NMR binding call [12] | NMR binding call [13] | NMR binding call [14] | NMR binding call [15] | NMR binding call [16] |
| --- | --- | --- | --- | --- | --- | --- | --- | --- | --- | --- | --- | --- | --- | --- | --- | --- |
| c1nc(N2CCC2)c2[nH]cnc2n1 | 1 | 0 | 0 | 0 | 0 | 0 | 1 | 0 | 0 | 0 | 0 | 0 | 0 | 0 | 0 | 0 |
| CCOc1cccc(C(=O)Nc2nnn(C)n2)c1 | 0 | 0 | 0 | 0 | 0 | 0 | 0 | 0 | 0 | 0 | 0 | 0 | 0 | 0 | 0 | 0 |
| CCCn1nnnc1NC(=O)c1ccco1 | 0 | 0 | 0 | 0 | 0 | 0 | 0 | 0 | 0 | 0 | 0 | 0 | 0 | 0 | 0 | 0 |
| CCNC(=O)c1c[nH]nn1 | 0 | 0 | 0 | 0 | 0 | 0 | 0 | 0 | 0 | 0 | 0 | 0 | 0 | 0 | 0 | 0 |
| CCc1nnc(NC(=O)c2cnccn2)s1 | 0 | 0 | 0 | 0 | 0 | 0 | 0 | 0 | 0 | 0 | 0 | 0 | 0 | 0 | 0 | 0 |
